PubChem BioAssay AID1259254 | NCATS, 2017
Test: 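Finding genes that stop cells copying their DNA twice in one cycle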 (primary screen). Cells: human HCT116 colorectal cancer cells. Knock-down reagent: single siRNA against human genes. Duration: 3 days. Detection: 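Nuclei stained with Hoechst and imaged; cell-cycle phase assigned by DNA content; G2 share scaled per plate, non-targeting siRNA 0%, GMNN siRNA 100%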. Direction: G2 robust z-score and G2 cells, % of GMNN control: higher = more G2 cells, more excess DNA replication; raw share of cells in G2: higher = larger share of cells with G2 DNA content. Active means: 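Active siRNAs have a G2 robust z of 5 or more median absolute deviations over the median, which in these data means about 38% or higher of GMNN control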.
The whole screen tested about 59,000 reagents; below is a part drawn at random. Over the whole deposit, about 1,550 (2.6%) are marked active. 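G2 share is only a proxy for re-replication; each gene was hit by three separate siRNAs, and active genes were retested.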 Raw values vary from plate to plate and are shown uncorrected. A number with no mark means an inactive call. Reagents against one gene are numbered here. Reagent sequences are not shown. Not stated in the record: the amount of reagent.

target | siRNA no. | G2 robust z-score | G2 cells, % of GMNN control | raw share of cells in G2 (%)
COP1P1 (COP1 pseudogene 1) | 1 | 3.68 | 28.9 | 15
COP1P1 (COP1 pseudogene 1) | 2 | 3.02 | 24.2 | 11.1
COP1P1 (COP1 pseudogene 1) | 3 | 0.318 | 5.2 | 5.13
RER1 (retention in endoplasmic reticulum sorting receptor 1) | 1 | 4.05 | 31.5 | 17.3
RER1 (retention in endoplasmic reticulum sorting receptor 1) | 2 | 1.33 | 12.3 | 9.23
RER1 (retention in endoplasmic reticulum sorting receptor 1) | 3 | 0.411 | 5.86 | 5.37
NDUFB5 (NADH:ubiquinone oxidoreductase subunit B5) | 1 | 0.216 | 4.49 | 4.68
NDUFB5 (NADH:ubiquinone oxidoreductase subunit B5) | 2 | 0.331 | 5.29 | 7.41
NDUFB5 (NADH:ubiquinone oxidoreductase subunit B5) | 3 | 0.235 | 4.62 | 7.3
AMY2B (amylase alpha 2B) | 1 | 4.21 | 32.6 | 16.7
AMY2B (amylase alpha 2B) | 2 | 1.36 | 12.5 | 8.98
AMY2B (amylase alpha 2B) | 3 | -0.145 | 1.95 | 4.72
TIMM10 (translocase of inner mitochondrial membrane 10) | 1 | -1.09 | -4.68 | 4.04
TIMM10 (translocase of inner mitochondrial membrane 10) | 2 | 3.36 | 26.6 | 12.7
TIMM10 (translocase of inner mitochondrial membrane 10) | 3 | 2.54 | 20.8 | 11.1
SLC9A2 | 1 | -0.623 | -1.42 | 5.2
SLC9A2 | 2 | -0.7 | -1.96 | 3.88
SLC9A2 | 3 | 0.802 | 8.61 | 6.81
MAB21L4 (mab-21 like 4) | 1 | -0.126 | 2.08 | 2.95
MAB21L4 (mab-21 like 4) | 2 | 1.56 | 14 | 10.2
MAB21L4 (mab-21 like 4) | 3 | -0.454 | -0.228 | 4.2
PRKD1 (protein kinase D1) | 1 | -1.53 | -7.83 | 3.02
PRKD1 (protein kinase D1) | 2 | -1.88 | -10.2 | 1.96
PRKD1 (protein kinase D1) | 3 | 0.286 | 4.98 | 5.78
CNTN1 (contactin 1) | 1 | 0.926 | 9.48 | 7.36
CNTN1 (contactin 1) | 2 | 0.347 | 5.41 | 6.89
CNTN1 (contactin 1) | 3 | -0.302 | 0.844 | 5.3
ZNF573 (zinc finger protein 573) | 1 | 0.308 | 5.14 | 4.86
ZNF573 (zinc finger protein 573) | 2 | -0.457 | -0.249 | 3.08
ZNF573 (zinc finger protein 573) | 3 | 1.41 | 12.9 | 8.05
TRMT10C (tRNA methyltransferase 10C, mitochondrial RNase P subunit) | 1 | -0.561 | -0.982 | 4.09
TRMT10C (tRNA methyltransferase 10C, mitochondrial RNase P subunit) | 2 | -0.0295 | 2.76 | 5.48
TRMT10C (tRNA methyltransferase 10C, mitochondrial RNase P subunit) | 3 | -0.508 | -0.607 | 6.16
HNRNPAB (heterogeneous nuclear ribonucleoprotein A/B) | 1 | -0.592 | -1.2 | 3.76
HNRNPAB (heterogeneous nuclear ribonucleoprotein A/B) | 2 | 0.603 | 7.21 | 7.66
HNRNPAB (heterogeneous nuclear ribonucleoprotein A/B) | 3 | -0.0531 | 2.59 | 6.67
WASHC2FP (WASHC2F, pseudogene) | 1 | -0.522 | -0.708 | 2.57
WASHC2FP (WASHC2F, pseudogene) | 2 | 0.307 | 5.13 | 5.56
WASHC2FP (WASHC2F, pseudogene) | 3 | -0.00858 | 2.91 | 4.25
ANKRD6 (ankyrin repeat domain 6) | 1 | -0.517 | -0.67 | 4.72
ANKRD6 (ankyrin repeat domain 6) | 2 | 1.85 | 16 | 10.7
ANKRD6 (ankyrin repeat domain 6) | 3 | 2.84 | 23 | 11.8
TMEM116 (transmembrane protein 116) | 1 | -0.524 | -0.718 | 3.33
TMEM116 (transmembrane protein 116) | 2 | -0.0421 | 2.67 | 5.22
TMEM116 (transmembrane protein 116) | 3 | -0.103 | 2.24 | 3.7
TMEM116 (transmembrane protein 116) | 4 | -0.246 | 1.24 | 3.32
TMEM116 (transmembrane protein 116) | 5 | -0.38 | 0.295 | 3.65
TMEM116 (transmembrane protein 116) | 6 | 2.14 | 18 | 9.22
ZNF274 (zinc finger protein 274) | 1 | -0.977 | -3.91 | 4.25
ZNF274 (zinc finger protein 274) | 2 | -0.681 | -1.82 | 2.58
ZNF274 (zinc finger protein 274) | 3 | -0.299 | 0.862 | 3.81
DRC3 (dynein regulatory complex subunit 3) | 1 | -0.957 | -3.77 | 2.85
DRC3 (dynein regulatory complex subunit 3) | 2 | 6.88 (active) | 51.4 | 18.7
DRC3 (dynein regulatory complex subunit 3) | 3 | 3.56 | 28 | 10.9
GPT (glutamic--pyruvic transaminase) | 1 | -1.08 | -4.63 | 3.5
GPT (glutamic--pyruvic transaminase) | 2 | -0.831 | -2.88 | 2.63
GPT (glutamic--pyruvic transaminase) | 3 | 1.95 | 16.7 | 11.3
SYTL2 (synaptotagmin like 2) | 1 | 0.866 | 9.06 | 5.99
SYTL2 (synaptotagmin like 2) | 2 | -1.56 | -8.04 | 2.28
SYTL2 (synaptotagmin like 2) | 3 | -0.937 | -3.63 | 2.49
RACK1 (receptor for activated C kinase 1) | 1 | -0.0208 | 2.82 | 6.61
RACK1 (receptor for activated C kinase 1) | 2 | -0.869 | -3.14 | 2.63
RACK1 (receptor for activated C kinase 1) | 3 | 0.782 | 8.47 | 6.49
H3-3A (H3.3 histone A) | 1 | -0.424 | -0.0129 | 5.3
H3-3A (H3.3 histone A) | 2 | 5.11 (active) | 38.9 | 18.3
H3-3A (H3.3 histone A) | 3 | -0.798 | -2.64 | 2.49
AFMID (arylformamidase) | 1 | -0.952 | -3.73 | 3.07
AFMID (arylformamidase) | 2 | 1.32 | 12.3 | 10.2
AFMID (arylformamidase) | 3 | 0.03 | 3.18 | 7.15

An excerpt from above, reduced to “G2 robust z-score”:
ANKRD6 (ankyrin repeat domain 6) #2: 1.85
ANKRD6 (ankyrin repeat domain 6) #3: 2.84
TMEM116 (transmembrane protein 116) #1: -0.524
TMEM116 (transmembrane protein 116) #2: -0.0421
TMEM116 (transmembrane protein 116) #3: -0.103
TMEM116 (transmembrane protein 116) #4: -0.246
TMEM116 (transmembrane protein 116) #5: -0.38
TMEM116 (transmembrane protein 116) #6: 2.14
ZNF274 (zinc finger protein 274) #1: -0.977
ZNF274 (zinc finger protein 274) #2: -0.681
